Reference: PubChem BioAssay AID1224831 (NIAID, 2016)

Screen: 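Retesting screen hits on the TLR4-driven TNF response with six separate siRNAs each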 (follow-up of hits)
Cell system: human THP-1 B5 monocytic leukaemia cells carrying a TNF promoter luciferase reporter, made macrophage-like with PMA
Knock-down reagent: single siRNA against human genes, 50 nM
Timing: about 68 h of knock-down, then 4 h LPS
Challenge: LPS (Salmonella minnesota, TLR-grade) at 10 ng/ml for 4 h; PMA 5 ng/ml present during knock-down
Read-out: 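Firefly to renilla luciferase ratio of a TNF promoter reporter after 4 h LPS, scaled to plate median, turned into robust z-score, averaged over replicates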
Scale: TNF reporter z-score: higher = stronger LPS-induced TNF reporter signal; z-score, median over gene's siRNAs: higher = stronger TNF reporter signal across the gene's siRNAs
Active means: 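Active when the replicate mean z-score is about -1 or lower, or about 1.5 or higher; lowered and raised TNF reporter signal both count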
Meaning of the calls: active = changed TNF reporter (either direction); inactive = little change
Here is a random part of about 3,500 reagents tested. Of all reagents, 731 (21%) were called active. 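Active means either lowered or raised reporter signal; the gene-median score did not drive the per-siRNA calls.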 Reagents against one gene are numbered here.

What did the screen give for PSMD2 #1?
TNF reporter z-score, replicate mean: -1.23; z-score, median over gene's siRNAs: -1.1; activity call: active

For PSMD2 #2, how do the results read?
TNF reporter z-score, replicate mean: -1.21; z-score, median over gene's siRNAs: -1.1; activity call: active

With PSMD2 #3, how do the results read?
TNF reporter z-score, replicate mean: -1.02; z-score, median over gene's siRNAs: -1.1; activity call: active

What is on record for PSMD2 #4?
TNF reporter z-score, replicate mean: -1.19; z-score, median over gene's siRNAs: -1.1; activity call: active

What did the screen give for PSMD2 #5?
TNF reporter z-score, replicate mean: -0.65; z-score, median over gene's siRNAs: -1.1; activity call: inactive

How did the screen score PSMD2 #6?
TNF reporter z-score, replicate mean: -0.79; z-score, median over gene's siRNAs: -1.1; activity call: inactive

For PGLYRP3 #1, what was measured?
TNF reporter z-score, replicate mean: 1.47; z-score, median over gene's siRNAs: 0.245; activity call: inactive

For PGLYRP3 #2, what was measured?
TNF reporter z-score, replicate mean: -0.45; z-score, median over gene's siRNAs: 0.245; activity call: inactive

With PGLYRP3 #3, what was measured?
TNF reporter z-score, replicate mean: 1.17; z-score, median over gene's siRNAs: 0.245; activity call: inactive

How did the screen score PGLYRP3 #4?
TNF reporter z-score, replicate mean: -0.74; z-score, median over gene's siRNAs: 0.245; activity call: inactive

What did the screen give for PGLYRP3 #5?
TNF reporter z-score, replicate mean: 0.11; z-score, median over gene's siRNAs: 0.245; activity call: inactive

With PGLYRP3 #6, how do the results read?
TNF reporter z-score, replicate mean: 0.38; z-score, median over gene's siRNAs: 0.245; activity call: inactive

What is on record for TEX2 #1?
TNF reporter z-score, replicate mean: 2.38; z-score, median over gene's siRNAs: -0.375; activity call: active

Which result is listed for TEX2 #2?
TNF reporter z-score, replicate mean: -0.29; z-score, median over gene's siRNAs: -0.375; activity call: inactive

For TEX2 #3, what was measured?
TNF reporter z-score, replicate mean: -0.46; z-score, median over gene's siRNAs: -0.375; activity call: inactive

With TEX2 #4, how do the results read?
TNF reporter z-score, replicate mean: -0.89; z-score, median over gene's siRNAs: -0.375; activity call: inactive

What did the screen give for TEX2 #5?
TNF reporter z-score, replicate mean: -0.11; z-score, median over gene's siRNAs: -0.375; activity call: inactive

For TEX2 #6, how do the results read?
TNF reporter z-score, replicate mean: -0.7; z-score, median over gene's siRNAs: -0.375; activity call: inactive

Called active, of those listed so far:
PSMD2 #1 | TNF reporter z-score, replicate mean: -1.23; z-score, median over gene's siRNAs: -1.1; activity call: active
PSMD2 #2 | TNF reporter z-score, replicate mean: -1.21; z-score, median over gene's siRNAs: -1.1; activity call: active
PSMD2 #3 | TNF reporter z-score, replicate mean: -1.02; z-score, median over gene's siRNAs: -1.1; activity call: active
PSMD2 #4 | TNF reporter z-score, replicate mean: -1.19; z-score, median over gene's siRNAs: -1.1; activity call: active
TEX2 #1 | TNF reporter z-score, replicate mean: 2.38; z-score, median over gene's siRNAs: -0.375; activity call: active

The list goes on:
For CCDC140 #1, what does the deposit list?
TNF reporter z-score, replicate mean: 0.43; z-score, median over gene's siRNAs: -0.815; activity call: inactive

With CCDC140 #2, how do the results read?
TNF reporter z-score, replicate mean: -1.08; z-score, median over gene's siRNAs: -0.815; activity call: active

What is on record for CCDC140 #3?
TNF reporter z-score, replicate mean: -1.65; z-score, median over gene's siRNAs: -0.815; activity call: active

With CCDC140 #4, what does the deposit list?
TNF reporter z-score, replicate mean: -1.2; z-score, median over gene's siRNAs: -0.815; activity call: active

For CCDC140 #5, what was measured?
TNF reporter z-score, replicate mean: -0.35; z-score, median over gene's siRNAs: -0.815; activity call: inactive

How did the screen score CCDC140 #6?
TNF reporter z-score, replicate mean: -0.55; z-score, median over gene's siRNAs: -0.815; activity call: inactive

What did the screen give for GPR15LG #1?
TNF reporter z-score, replicate mean: -0.07; z-score, median over gene's siRNAs: -0.56; activity call: inactive

How did the screen score GPR15LG #2?
TNF reporter z-score, replicate mean: -1.84; z-score, median over gene's siRNAs: -0.56; activity call: active

How did the screen score GPR15LG #3?
TNF reporter z-score, replicate mean: -1.81; z-score, median over gene's siRNAs: -0.56; activity call: active

With GPR15LG #4, what does the deposit list?
TNF reporter z-score, replicate mean: -0.7; z-score, median over gene's siRNAs: -0.56; activity call: inactive

What is on record for GPR15LG #5?
TNF reporter z-score, replicate mean: 0.35; z-score, median over gene's siRNAs: -0.56; activity call: inactive

With GPR15LG #6, what was measured?
TNF reporter z-score, replicate mean: -0.42; z-score, median over gene's siRNAs: -0.56; activity call: inactive

For RAPGEF3 #1, what does the deposit list?
TNF reporter z-score, replicate mean: -0.83; z-score, median over gene's siRNAs: -0.185; activity call: inactive

What is on record for RAPGEF3 #2?
TNF reporter z-score, replicate mean: 0.36; z-score, median over gene's siRNAs: -0.185; activity call: inactive

For RAPGEF3 #3, what was measured?
TNF reporter z-score, replicate mean: 2.06; z-score, median over gene's siRNAs: -0.185; activity call: active

With RAPGEF3 #4, what was measured?
TNF reporter z-score, replicate mean: -0.73; z-score, median over gene's siRNAs: -0.185; activity call: inactive

For RAPGEF3 #5, what was measured?
TNF reporter z-score, replicate mean: -1.13; z-score, median over gene's siRNAs: -0.185; activity call: active

For RAPGEF3 #6, how do the results read?
TNF reporter z-score, replicate mean: 2.38; z-score, median over gene's siRNAs: -0.185; activity call: active

What did the screen give for TNIP1 #1?
TNF reporter z-score, replicate mean: 0.4; z-score, median over gene's siRNAs: 0.28; activity call: inactive

With TNIP1 #2, what does the deposit list?
TNF reporter z-score, replicate mean: 0.91; z-score, median over gene's siRNAs: 0.28; activity call: inactive

What did the screen give for TNIP1 #3?
TNF reporter z-score, replicate mean: 0.16; z-score, median over gene's siRNAs: 0.28; activity call: inactive

Which result is listed for TNIP1 #4?
TNF reporter z-score, replicate mean: -0.54; z-score, median over gene's siRNAs: 0.28; activity call: inactive

What did the screen give for TNIP1 #5?
TNF reporter z-score, replicate mean: -1.52; z-score, median over gene's siRNAs: 0.28; activity call: active

With TNIP1 #6, what was measured?
TNF reporter z-score, replicate mean: 0.45; z-score, median over gene's siRNAs: 0.28; activity call: inactive
